In the supplement of paper PMC12823440, “Inhibitors supercharge kinase turnover through native proteolytic circuits” (Nature, 2025):
Structures can show the parent of a compound that is named as a salt. This is one part of the list. The calls rarely recur for the same compound in another form.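 In K562 cells expressing nanoluciferase-fused kinases, luminescence was recorded at 4 h intervals between 2 and 18 h, normalized as percent of control with DMSO at 100% and a positive control at 0%. A significant (2 sigma) signal drop marks a time point as decreased. The authors' rule for a hit is not shown and takes in more than the number of time points.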

Amino acid sequences for entries named in this document (tags omitted). A change or cut given only in a name is not applied to a line headed by its entry.
UniProt Q9Y616: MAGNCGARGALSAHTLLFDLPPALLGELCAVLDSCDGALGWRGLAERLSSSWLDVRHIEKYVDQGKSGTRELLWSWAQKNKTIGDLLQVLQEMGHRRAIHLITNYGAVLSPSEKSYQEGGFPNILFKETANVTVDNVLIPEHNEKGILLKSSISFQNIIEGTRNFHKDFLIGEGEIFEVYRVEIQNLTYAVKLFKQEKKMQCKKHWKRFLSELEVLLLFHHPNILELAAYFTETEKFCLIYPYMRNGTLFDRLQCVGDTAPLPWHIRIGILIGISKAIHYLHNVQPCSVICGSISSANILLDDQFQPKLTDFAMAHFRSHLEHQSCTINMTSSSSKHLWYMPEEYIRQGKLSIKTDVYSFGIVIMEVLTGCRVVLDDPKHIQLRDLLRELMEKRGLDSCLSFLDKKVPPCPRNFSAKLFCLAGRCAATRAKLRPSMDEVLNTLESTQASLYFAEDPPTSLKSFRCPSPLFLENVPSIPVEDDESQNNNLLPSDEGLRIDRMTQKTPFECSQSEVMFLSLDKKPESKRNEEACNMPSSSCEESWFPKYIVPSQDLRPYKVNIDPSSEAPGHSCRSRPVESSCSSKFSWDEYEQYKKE
UniProt P23458: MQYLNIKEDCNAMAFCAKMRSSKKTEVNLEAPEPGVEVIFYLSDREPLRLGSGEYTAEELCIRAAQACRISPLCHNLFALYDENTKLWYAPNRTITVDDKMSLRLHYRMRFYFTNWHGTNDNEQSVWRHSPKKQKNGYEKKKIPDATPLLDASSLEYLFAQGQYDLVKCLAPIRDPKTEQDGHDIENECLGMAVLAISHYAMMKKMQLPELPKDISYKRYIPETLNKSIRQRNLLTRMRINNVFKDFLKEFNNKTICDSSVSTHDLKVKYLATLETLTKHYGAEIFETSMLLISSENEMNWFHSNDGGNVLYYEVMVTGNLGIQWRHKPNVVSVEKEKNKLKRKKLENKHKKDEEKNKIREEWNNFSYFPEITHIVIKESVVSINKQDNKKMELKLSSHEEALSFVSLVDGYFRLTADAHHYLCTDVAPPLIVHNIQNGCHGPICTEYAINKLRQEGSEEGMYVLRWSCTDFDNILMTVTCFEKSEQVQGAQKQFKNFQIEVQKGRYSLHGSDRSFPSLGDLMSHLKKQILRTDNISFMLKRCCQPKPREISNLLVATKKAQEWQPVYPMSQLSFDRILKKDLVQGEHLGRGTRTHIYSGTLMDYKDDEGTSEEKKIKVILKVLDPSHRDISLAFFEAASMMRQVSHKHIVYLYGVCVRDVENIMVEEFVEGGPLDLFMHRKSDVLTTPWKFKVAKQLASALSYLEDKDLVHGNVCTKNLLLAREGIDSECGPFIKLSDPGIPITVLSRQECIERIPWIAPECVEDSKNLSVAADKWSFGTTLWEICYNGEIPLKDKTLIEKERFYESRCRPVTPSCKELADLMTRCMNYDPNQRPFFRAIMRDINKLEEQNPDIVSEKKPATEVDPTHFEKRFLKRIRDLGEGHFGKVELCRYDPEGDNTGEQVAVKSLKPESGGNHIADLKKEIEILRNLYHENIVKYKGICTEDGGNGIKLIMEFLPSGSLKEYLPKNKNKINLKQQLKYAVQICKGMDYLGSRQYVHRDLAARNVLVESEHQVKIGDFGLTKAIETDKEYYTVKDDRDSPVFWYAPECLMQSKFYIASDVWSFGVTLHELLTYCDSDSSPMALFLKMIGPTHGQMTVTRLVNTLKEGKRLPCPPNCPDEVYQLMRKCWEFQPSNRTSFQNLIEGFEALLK
UniProt P06239: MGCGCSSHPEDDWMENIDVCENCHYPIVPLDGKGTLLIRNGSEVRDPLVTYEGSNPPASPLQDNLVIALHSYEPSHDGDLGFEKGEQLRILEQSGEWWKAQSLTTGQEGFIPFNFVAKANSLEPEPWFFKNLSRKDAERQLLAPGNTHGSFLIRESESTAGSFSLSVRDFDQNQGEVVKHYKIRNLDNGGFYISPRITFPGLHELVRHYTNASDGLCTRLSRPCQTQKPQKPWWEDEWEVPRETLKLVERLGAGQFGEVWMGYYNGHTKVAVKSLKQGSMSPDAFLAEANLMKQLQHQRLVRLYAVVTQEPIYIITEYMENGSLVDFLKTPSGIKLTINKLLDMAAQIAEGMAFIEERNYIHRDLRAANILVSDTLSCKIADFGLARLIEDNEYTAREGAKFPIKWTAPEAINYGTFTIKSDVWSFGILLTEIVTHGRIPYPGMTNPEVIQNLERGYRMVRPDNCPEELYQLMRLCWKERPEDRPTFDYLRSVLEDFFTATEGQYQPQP
UniProt P53667: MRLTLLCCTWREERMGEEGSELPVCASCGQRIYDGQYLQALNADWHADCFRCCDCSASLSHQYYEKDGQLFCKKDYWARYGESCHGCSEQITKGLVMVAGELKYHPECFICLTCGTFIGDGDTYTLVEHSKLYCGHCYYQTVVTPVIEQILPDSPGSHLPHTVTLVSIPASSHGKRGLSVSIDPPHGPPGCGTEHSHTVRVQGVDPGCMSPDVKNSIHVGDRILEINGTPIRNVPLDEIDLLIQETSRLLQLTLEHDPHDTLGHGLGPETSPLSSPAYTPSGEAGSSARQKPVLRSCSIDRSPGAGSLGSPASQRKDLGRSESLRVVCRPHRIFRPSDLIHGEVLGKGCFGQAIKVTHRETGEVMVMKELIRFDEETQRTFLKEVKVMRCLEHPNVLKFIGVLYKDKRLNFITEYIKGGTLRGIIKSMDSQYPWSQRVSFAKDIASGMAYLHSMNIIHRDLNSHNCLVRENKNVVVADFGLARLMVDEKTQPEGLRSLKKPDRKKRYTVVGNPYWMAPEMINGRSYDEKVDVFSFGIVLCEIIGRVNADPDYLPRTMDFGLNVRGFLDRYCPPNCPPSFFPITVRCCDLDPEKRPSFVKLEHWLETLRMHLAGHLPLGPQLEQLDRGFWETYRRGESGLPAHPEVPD
UniProt P53671: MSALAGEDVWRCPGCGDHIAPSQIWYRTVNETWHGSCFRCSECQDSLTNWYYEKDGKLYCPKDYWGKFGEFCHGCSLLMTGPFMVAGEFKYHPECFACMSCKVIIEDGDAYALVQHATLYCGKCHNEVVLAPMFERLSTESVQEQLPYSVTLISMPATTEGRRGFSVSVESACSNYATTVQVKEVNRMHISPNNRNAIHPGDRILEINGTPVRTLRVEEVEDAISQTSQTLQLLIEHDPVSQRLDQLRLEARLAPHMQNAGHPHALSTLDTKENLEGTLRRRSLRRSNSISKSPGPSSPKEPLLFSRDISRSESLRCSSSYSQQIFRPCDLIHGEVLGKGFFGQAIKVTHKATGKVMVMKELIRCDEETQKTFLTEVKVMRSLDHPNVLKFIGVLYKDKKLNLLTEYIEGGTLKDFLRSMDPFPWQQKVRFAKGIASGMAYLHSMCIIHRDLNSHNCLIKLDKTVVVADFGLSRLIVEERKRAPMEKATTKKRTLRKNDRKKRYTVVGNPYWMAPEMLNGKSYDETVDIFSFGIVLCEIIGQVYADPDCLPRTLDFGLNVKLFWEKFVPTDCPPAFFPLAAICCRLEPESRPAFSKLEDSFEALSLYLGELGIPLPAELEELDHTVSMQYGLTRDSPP
UniProt Q8IWU2: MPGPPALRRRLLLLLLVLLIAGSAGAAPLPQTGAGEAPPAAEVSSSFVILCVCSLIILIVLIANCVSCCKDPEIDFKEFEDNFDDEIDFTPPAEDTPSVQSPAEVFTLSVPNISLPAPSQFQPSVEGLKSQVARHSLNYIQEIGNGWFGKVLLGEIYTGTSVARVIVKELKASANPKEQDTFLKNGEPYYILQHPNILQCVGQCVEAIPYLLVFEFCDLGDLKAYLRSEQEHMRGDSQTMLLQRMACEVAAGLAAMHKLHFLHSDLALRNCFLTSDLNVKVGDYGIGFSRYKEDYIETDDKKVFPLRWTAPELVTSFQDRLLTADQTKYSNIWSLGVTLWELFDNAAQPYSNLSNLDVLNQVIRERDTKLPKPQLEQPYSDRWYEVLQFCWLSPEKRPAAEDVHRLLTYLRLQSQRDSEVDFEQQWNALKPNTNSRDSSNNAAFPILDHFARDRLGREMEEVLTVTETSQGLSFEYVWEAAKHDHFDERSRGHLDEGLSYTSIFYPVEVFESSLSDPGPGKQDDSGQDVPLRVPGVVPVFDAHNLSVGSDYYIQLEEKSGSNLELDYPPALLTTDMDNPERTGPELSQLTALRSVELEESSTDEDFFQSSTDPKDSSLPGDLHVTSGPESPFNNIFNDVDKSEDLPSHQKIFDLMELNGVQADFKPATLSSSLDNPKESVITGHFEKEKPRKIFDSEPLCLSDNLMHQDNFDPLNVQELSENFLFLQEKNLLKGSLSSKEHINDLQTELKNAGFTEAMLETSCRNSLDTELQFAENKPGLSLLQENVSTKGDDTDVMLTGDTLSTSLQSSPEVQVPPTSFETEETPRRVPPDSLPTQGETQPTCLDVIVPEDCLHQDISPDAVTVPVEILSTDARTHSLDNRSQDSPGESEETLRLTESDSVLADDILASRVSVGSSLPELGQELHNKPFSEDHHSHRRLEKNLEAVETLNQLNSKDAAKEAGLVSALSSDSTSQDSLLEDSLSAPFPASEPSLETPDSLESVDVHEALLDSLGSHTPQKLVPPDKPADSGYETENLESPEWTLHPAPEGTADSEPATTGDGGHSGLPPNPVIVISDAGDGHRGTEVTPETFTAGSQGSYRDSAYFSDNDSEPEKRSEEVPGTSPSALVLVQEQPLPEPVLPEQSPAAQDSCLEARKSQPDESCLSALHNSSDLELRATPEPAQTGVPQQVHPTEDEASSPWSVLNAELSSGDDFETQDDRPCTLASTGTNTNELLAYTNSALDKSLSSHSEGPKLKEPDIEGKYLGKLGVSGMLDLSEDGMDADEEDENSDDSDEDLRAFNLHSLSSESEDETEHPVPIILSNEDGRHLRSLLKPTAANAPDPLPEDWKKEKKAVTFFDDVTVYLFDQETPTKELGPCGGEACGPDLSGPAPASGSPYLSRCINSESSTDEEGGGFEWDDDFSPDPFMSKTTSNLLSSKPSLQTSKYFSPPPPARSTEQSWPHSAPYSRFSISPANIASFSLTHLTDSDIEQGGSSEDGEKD
UniProt P07948: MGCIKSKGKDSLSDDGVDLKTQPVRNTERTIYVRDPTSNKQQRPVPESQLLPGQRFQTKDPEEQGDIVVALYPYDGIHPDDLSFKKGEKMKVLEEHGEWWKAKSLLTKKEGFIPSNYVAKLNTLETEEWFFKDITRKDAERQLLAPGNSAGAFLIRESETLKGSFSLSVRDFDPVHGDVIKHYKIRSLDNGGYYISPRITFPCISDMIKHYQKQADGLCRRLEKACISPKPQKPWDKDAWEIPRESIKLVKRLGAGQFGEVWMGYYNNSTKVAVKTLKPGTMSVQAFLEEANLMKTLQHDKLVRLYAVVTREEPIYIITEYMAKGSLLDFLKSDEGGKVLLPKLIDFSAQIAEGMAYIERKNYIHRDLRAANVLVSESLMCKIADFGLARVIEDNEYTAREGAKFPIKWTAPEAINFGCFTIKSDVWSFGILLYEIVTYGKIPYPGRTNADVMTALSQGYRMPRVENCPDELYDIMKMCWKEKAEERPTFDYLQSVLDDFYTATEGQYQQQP
UniProt Q12851: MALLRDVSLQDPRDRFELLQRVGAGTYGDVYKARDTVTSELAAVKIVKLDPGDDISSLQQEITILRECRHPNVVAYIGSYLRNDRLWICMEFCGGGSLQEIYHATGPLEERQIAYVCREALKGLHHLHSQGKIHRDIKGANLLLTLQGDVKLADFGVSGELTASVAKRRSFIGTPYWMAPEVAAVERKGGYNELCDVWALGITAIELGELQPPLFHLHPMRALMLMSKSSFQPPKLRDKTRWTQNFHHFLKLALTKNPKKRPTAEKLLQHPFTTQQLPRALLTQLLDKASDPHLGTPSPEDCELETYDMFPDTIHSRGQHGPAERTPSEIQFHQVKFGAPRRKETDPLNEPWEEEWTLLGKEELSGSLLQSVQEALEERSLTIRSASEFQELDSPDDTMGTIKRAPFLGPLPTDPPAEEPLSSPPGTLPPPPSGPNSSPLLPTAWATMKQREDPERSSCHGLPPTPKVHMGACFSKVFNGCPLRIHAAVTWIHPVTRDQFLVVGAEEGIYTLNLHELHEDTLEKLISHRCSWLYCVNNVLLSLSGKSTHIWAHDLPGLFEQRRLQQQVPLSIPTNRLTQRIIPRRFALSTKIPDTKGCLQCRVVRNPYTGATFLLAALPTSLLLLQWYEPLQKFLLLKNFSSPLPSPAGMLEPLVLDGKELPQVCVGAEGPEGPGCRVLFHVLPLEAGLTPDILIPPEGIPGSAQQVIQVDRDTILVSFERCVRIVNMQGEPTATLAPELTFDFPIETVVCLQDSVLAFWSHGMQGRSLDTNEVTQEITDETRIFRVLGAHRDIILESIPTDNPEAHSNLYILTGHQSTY

Assays:
Assay in all cases: kinase-Nluc reporter destabilization hit call (1 = scored as downregulated) (binary); higher = compound decreases kinase abundance
Conditions in all cases: K562; 2-18 h
IRAK3 = IRAK3 (UniProt Q9Y616)
JAK1 = JAK1 (UniProt P23458)
LCK = LCK (UniProt P06239)
LIMK1 = LIMK1 (UniProt P53667)
LIMK2 = LIMK2 (UniProt P53671)
LMTK2 = LMTK2 (UniProt Q8IWU2)
LYN = LYN (UniProt P07948)
MAP2K1 = MAP2K1 (UniProt Q02750)
MAP2K2 = MAP2K2 (UniProt P36507)
MAP4K2 = MAP4K2 (UniProt Q12851)

Measured: kinase-Nluc reporter destabilization hit call

COc1ccc2nc3ccc(OC)cc3c(SCCCN)c2c1 (10 µM)
inactive: IRAK3 = 0 | JAK1 = 0 | LCK 0 | LIMK1 = 0 | LIMK2 = 0 | LMTK2 = 0 | LYN 0 | MAP2K1 = 0 | MAP2K2 = 0 | MAP4K2 = 0

O=C(O)c1c[nH]c2cc(Cl)c(-c3ccc(C4(O)CCC4)cc3)cc12 (10 µM)
inactive: IRAK3 = 0 | JAK1 = 0 | LCK 0 | LIMK1 = 0 | LIMK2 = 0 | LMTK2 = 0 | LYN 0 | MAP2K1 = 0 | MAP2K2 = 0 | MAP4K2 = 0

CCOC(=O)c1c(Nc2ccccc2Cl)oc(/C=C2\C=Nc3ncccc32)c1O (10 µM)
inactive: IRAK3 = 0 | JAK1 = 0 | LCK 0 | LIMK1 = 0 | LIMK2 = 0 | LMTK2 = 0 | LYN 0 | MAP2K1 = 0 | MAP2K2 = 0 | MAP4K2 = 0

O=[N+]([O-])c1ccc(-c2nc(-c3ccc(F)cc3)c(-c3ccncc3)[nH]2)cc1 (10 µM)
inactive: IRAK3 = 0 | JAK1 = 0 | LCK 0 | LIMK1 = 0 | LIMK2 = 0 | LMTK2 = 0 | LYN 0 | MAP2K1 = 0 | MAP2K2 = 0 | MAP4K2 = 0

COc1cc(N2CCC(O)CC2)ccc1Nc1nc(Nc2ccccc2S(=O)(=O)C(C)C)c2[nH]cnc2n1 (10 µM)
inactive: IRAK3 = 0 | JAK1 = 0 | LCK 0 | LIMK1 = 0 | LIMK2 = 0 | LMTK2 = 0 | LYN 0 | MAP2K1 = 0 | MAP2K2 = 0 | MAP4K2 = 0

CC/C(=C(\c1ccccc1)c1ccc(OCCNC)cc1)c1ccccc1 [N-Desmethyltamoxifen (hydrochloride)] (2.5 µM)
inactive: IRAK3 = 0 | JAK1 = 0 | LCK 0 | LIMK1 = 0 | LIMK2 = 0 | LMTK2 = 0 | LYN 0 | MAP2K1 = 0 | MAP2K2 = 0 | MAP4K2 = 0

O=C(COc1ccc(Cl)cc1)NC1CCC(NC(=O)COc2ccc(Cl)cc2)CC1 (stereo not drawn) [ISRIB (trans-isomer)] (10 µM)
inactive: IRAK3 = 0 | JAK1 = 0 | LCK 0 | LIMK1 = 0 | LIMK2 = 0 | LMTK2 = 0 | LYN 0 | MAP2K1 = 0 | MAP2K2 = 0 | MAP4K2 = 0

COc1cc2nc(-c3cc(F)ccc3O)nc(N[C@@H]3CNC[C@H]3C(C)(C)O)c2cc1OC (2.5 µM)
inactive: IRAK3 = 0 | JAK1 = 0 | LCK 0 | LIMK1 = 0 | LIMK2 = 0 | LMTK2 = 0 | LYN 0 | MAP2K1 = 0 | MAP2K2 = 0 | MAP4K2 = 0

Cc1nc(Nc2cnn(C3CCNCC3)c2)nc2c1N(C)C(=O)c1cc3ccccc3cc1N2C (2.5 µM)
inactive: IRAK3 = 0 | JAK1 = 0 | LCK 0 | LIMK1 = 0 | LIMK2 = 0 | LMTK2 = 0 | LYN 0 | MAP2K1 = 0 | MAP2K2 = 0 | MAP4K2 = 0

CC(C)=CCC[C@](C)(O[C@@H]1O[C@H](CO[C@@H]2O[C@H](CO)[C@@H](O)[C@H](O)[C@H]2O)[C@@H](O)[C@H](O)[C@H]1O)[C@H]1CC[C@]2(C)[C@@H]1[C@H](O)C[C@@H]1[C@@]3(C)CC[C@H](O[C@@H]4O[C@H](CO)[C@@H](O)[C@H](O)[C@H]4O[C@@H]4O[C@H](CO)[C@@H](O)[C@H](O)[C@H]4O)C(C)(C)[C@@H]3CC[C@]12C [Ginsenoside Rb1] (10 µM)
inactive: IRAK3 = 0 | JAK1 = 0 | LCK 0 | LIMK1 = 0 | LIMK2 = 0 | LMTK2 = 0 | LYN 0 | MAP2K1 = 0 | MAP2K2 = 0 | MAP4K2 = 0

O=c1c(O)c(-c2ccc(O)c(O)c2)oc2cc(O)c(O)c(O)c12 [Quercetagetin] (10 µM)
inactive: IRAK3 = 0 | JAK1 = 0 | LCK 0 | LIMK1 = 0 | LIMK2 = 0 | LMTK2 = 0 | LYN 0 | MAP2K1 = 0 | MAP2K2 = 0 | MAP4K2 = 0

O=CN1CCN(c2ccc(C=C3C(=O)Nc4ccccc43)cc2)CC1 (10 µM)
inactive: IRAK3 = 0 | JAK1 = 0 | LCK 0 | LIMK1 = 0 | LIMK2 = 0 | LMTK2 = 0 | LYN 0 | MAP2K1 = 0 | MAP2K2 = 0 | MAP4K2 = 0

Fc1ccc(Cl)cc1-c1nc(Nc2ccncc2)c2nccnc2n1 (10 µM)
inactive: IRAK3 = 0 | JAK1 = 0 | LCK 0 | LIMK1 = 0 | LIMK2 = 0 | LMTK2 = 0 | LYN 0 | MAP2K1 = 0 | MAP2K2 = 0 | MAP4K2 = 0

O=C1CCC(N2C(=O)c3cccc(OCCCCCOc4ccc(CC(=O)Nc5cc(C6CCC6)[nH]n5)cc4)c3C2=O)C(=O)N1 (stereo not given) [PROTAC CDK9 Degrader-1] (10 µM)
inactive: IRAK3 = 0 | JAK1 = 0 | LCK 0 | LIMK1 = 0 | LIMK2 = 0 | LMTK2 = 0 | LYN 0 | MAP2K1 = 0 | MAP2K2 = 0 | MAP4K2 = 0

CN(C)C(=O)c1cc2cnc(Nc3ccc(N4CCN(CCCCNC(=O)COc5cccc6c5C(=O)N(C5CCC(=O)NC5=O)C6=O)CC4)cn3)nc2n1C1CCCC1 (stereo not given) (10 µM)
inactive: IRAK3 = 0 | JAK1 = 0 | LCK 0 | LIMK1 = 0 | LIMK2 = 0 | LMTK2 = 0 | LYN 0 | MAP2K1 = 0 | MAP2K2 = 0 | MAP4K2 = 0

CCC(F)(F)c1cc(N2CCC(S(C)(=O)=O)CC2)nc2sc(C(N)=O)c(N)c12 (10 µM)
inactive: IRAK3 = 0 | JAK1 = 0 | LCK 0 | LIMK1 = 0 | LIMK2 = 0 | LMTK2 = 0 | LYN 0 | MAP2K1 = 0 | MAP2K2 = 0 | MAP4K2 = 0

CO[C@]1(C(=O)N[C@@H](C)c2ccc(-n3cc(F)cn3)nc2)CC[C@H](c2nc(C)cc(Nc3cc(C)[nH]n3)n2)CC1 [Pralsetinib] (10 µM)
inactive: IRAK3 = 0 | JAK1 = 0 | LCK 0 | LIMK1 = 0 | LIMK2 = 0 | LMTK2 = 0 | LYN 0 | MAP2K1 = 0 | MAP2K2 = 0 | MAP4K2 = 0

O=C(Nc1ccc(F)cc1F)C(NC(=S)Nc1cc(C(F)(F)F)cc(C(F)(F)F)c1)c1ccccc1 (racemic) (2.5 µM)
inactive: IRAK3 = 0 | JAK1 = 0 | LCK 0 | LIMK1 = 0 | LIMK2 = 0 | LMTK2 = 0 | LYN 0 | MAP2K1 = 0 | MAP2K2 = 0 | MAP4K2 = 0

CCOC(=O)c1c(C)[nH]c(C=C2C(=O)Nc3ccccc32)c1C (10 µM)
inactive: IRAK3 = 0 | JAK1 = 0 | LCK 0 | LIMK1 = 0 | LIMK2 = 0 | LMTK2 = 0 | LYN 0 | MAP2K1 = 0 | MAP2K2 = 0 | MAP4K2 = 0

CS[C@@]1(C(=O)Nc2ccc3[nH]nc(-c4ccc(OC(C)C)nc4)c3c2)CCN(CC(=O)N2CC=C(c3ccc(-c4ncn(C)n4)cc3)CC2)C1 (2.5 µM)
inactive: IRAK3 = 0 | JAK1 = 0 | LCK 0 | LIMK1 = 0 | LIMK2 = 0 | LMTK2 = 0 | LYN 0 | MAP2K1 = 0 | MAP2K2 = 0 | MAP4K2 = 0

Nc1nc(Nc2ccc3c(c2)CC[C@@H](N2CCCC2)CC3)nn1-c1cc2c(nn1)-c1ccccc1CCC2 [Bemcentinib] (2.5 µM)
inactive: IRAK3 = 0 | JAK1 = 0 | LCK 0 | LIMK1 = 0 | LIMK2 = 0 | LMTK2 = 0 | LYN 0 | MAP2K1 = 0 | MAP2K2 = 0 | MAP4K2 = 0

COCCOc1cnc2ccn([C@H](C)c3nnc4c(F)cc(-c5cnn(C)c5)cn34)c(=O)c2c1 (10 µM)
inactive: IRAK3 = 0 | JAK1 = 0 | LCK 0 | LIMK1 = 0 | LIMK2 = 0 | LMTK2 = 0 | LYN 0 | MAP2K1 = 0 | MAP2K2 = 0 | MAP4K2 = 0

C=CC(=O)Nc1cccc(Oc2nc(Nc3ccc(N4CCN(C)CC4)cc3OC)ncc2Cl)c1 (10 µM)
inactive: IRAK3 = 0 | JAK1 = 0 | LCK 0 | LIMK1 = 0 | LIMK2 = 0 | LMTK2 = 0 | LYN 0 | MAP2K1 = 0 | MAP2K2 = 0 | MAP4K2 = 0

For reference, 2 of the compounds above.
COCCOc1cnc2ccn([C@H](C)c3nnc4c(F)cc(-c5cnn(C)c5)cn34)c(=O)c2c1 (10 µM)
inactive: IRAK3 = 0 | JAK1 = 0 | LCK 0 | LIMK1 = 0 | LIMK2 = 0 | LMTK2 = 0 | LYN 0 | MAP2K1 = 0 | MAP2K2 = 0 | MAP4K2 = 0

C=CC(=O)Nc1cccc(Oc2nc(Nc3ccc(N4CCN(C)CC4)cc3OC)ncc2Cl)c1 (10 µM)
inactive: IRAK3 = 0 | JAK1 = 0 | LCK 0 | LIMK1 = 0 | LIMK2 = 0 | LMTK2 = 0 | LYN 0 | MAP2K1 = 0 | MAP2K2 = 0 | MAP4K2 = 0

Following part:

O=C(NCc1ccn[nH]1)c1cc([C@@H]2CCNC[C@H]2COc2ccc3c(c2)OCO3)ccc1F [GRK2-IN-1 (hydrochloride)] (10 µM)
inactive: IRAK3 = 0 | JAK1 = 0 | LCK 0 | LIMK1 = 0 | LIMK2 = 0 | LMTK2 = 0 | LYN 0 | MAP2K1 = 0 | MAP2K2 = 0 | MAP4K2 = 0

CN1CCN(Cc2ccc(-c3cn(C4CCC(O)CC4)c4nc(NCCC5CC5)ncc34)cc2)CC1 (stereo not given) (2.5 µM)
inactive: IRAK3 = 0 | JAK1 = 0 | LCK 0 | LIMK1 = 0 | LIMK2 = 0 | LMTK2 = 0 | LYN 0 | MAP2K1 = 0 | MAP2K2 = 0 | MAP4K2 = 0

COc1cc(Nc2ccnc3ccc(Br)cc23)cc(OC)c1OC (2.5 µM)
inactive: IRAK3 = 0 | JAK1 = 0 | LCK 0 | LIMK1 = 0 | LIMK2 = 0 | LMTK2 = 0 | LYN 0 | MAP2K1 = 0 | MAP2K2 = 0 | MAP4K2 = 0

C=CC(=O)N1CCC(c2ccc(C(N)=O)c(-c3ccc(Oc4ccccc4)cc3)n2)CC1 [Orelabrutinib] (2.5 µM)
inactive: IRAK3 = 0 | JAK1 = 0 | LCK 0 | LIMK1 = 0 | LIMK2 = 0 | LMTK2 = 0 | LYN 0 | MAP2K1 = 0 | MAP2K2 = 0 | MAP4K2 = 0

CCOc1cc(N2CCC(O)CC2)ccc1Nc1ncc2c(n1)N(C1CCCC1)CCC(=O)N2C (2.5 µM)
inactive: IRAK3 = 0 | JAK1 = 0 | LCK 0 | LIMK1 = 0 | LIMK2 = 0 | LMTK2 = 0 | LYN 0 | MAP2K1 = 0 | MAP2K2 = 0 | MAP4K2 = 0

CCC[C@H](C)Oc1nc(N)c2[nH]c(=O)n(CCCCCN3CCCCC3)c2n1 (10 µM)
inactive: IRAK3 = 0 | JAK1 = 0 | LCK 0 | LIMK1 = 0 | LIMK2 = 0 | LMTK2 = 0 | LYN 0 | MAP2K1 = 0 | MAP2K2 = 0 | MAP4K2 = 0
